Data on 68 compounds can be found in PubChem BioAssay AID662 (National Center for Advancing Translational Sciences (NCATS), 2007).

As a reminder, the AC50 is the concentration at which the activity in the assay is half-maximal.

The list shows a part of the results. These are further read-outs of the screen, such as a control signal, another cell line or another target. No call is given for them. The list favours compounds with an active or inconclusive main result. The note in brackets gives the kind of curve behind each potency; many fits are weak.

The assay is described as follows: Cell signaling CRE-BLA (Fsk stim). To be noted: CHO CRE-bla reporter (cAMP response element driving beta-lactamase), forskolin EC10, beta-lactamase ratio; measured here: 460 nm blue channel. An outline of the steps: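 Modulation of forskolin signalling: compounds in titration series added with EC10 NKH 477 to CHO cells carrying a CRE-driven beta-lactamase reporter, 3 h, 37C. CCF4 FRET ratio (460/530 nm, ex 405 nm) gives %activity and AC50.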
For `CCC/C(O)=C1\C(=O)CC(C)(C)CC1=NCCO`, the AC50 was 12.6 µM [rising, single point].
`CN(C)S(=O)(=O)N1CCC(c2ccc(F)cc2)C(COc2ccc3c(c2)OCO3)C1` (stereo not drawn): the AC50 was 15.8 µM [falling, partial curve].
For the compound `COc1ccccc1NC(=O)Cc1nn(C)c(=O)c2ccccc12`, the AC50 is 0.00398 µM [falling, full curve, poor fit].
`COc1ccc(-c2nnc3ccc(SCC(=O)N4CCCCCC4)nn23)cc1OC`: the AC50 was 7.94 µM [rising, partial curve].
With `CCCC[C@@H]1C[C@H]1C(NC(=O)c1ccccc1)c1ccc(C(=O)OC)cc1` (stereo partly drawn) the figure was 5.01 µM [rising, partial curve].
For `CN=CC1=C(O)c2ccccc2C1=O`, the AC50 was 0.0794 µM [falling, full curve].
Turning to `CCCc1cc(-c2[nH]ncc2-c2ccc3c(c2)OCCCO3)c(O)cc1O`, the AC50 was 6.31 µM [falling, partial curve].
As for `CCn1c(=O)c2cc(C(=O)N3CCOCC3)sc2c2ccccc21`, the AC50 was 2 µM [rising, full curve].
Take `O=C(c1ccco1)N1CCN(c2ncnc3c2[nH]c2ccc(Br)cc23)CC1`: the concentration at half-maximal activity (AC50) is 0.126 µM [rising, full curve].
For `COCCOC(=O)/C=C1/NC(=O)CS1`, the AC50 was 5.01 µM [falling, single point].
For the compound `CC1(C)Cc2ccccc2-c2nnc(-c3ccccn3)n21`, the half-maximal activity concentration (AC50) was 10 µM [falling, single point].
With `Cc1ccc(Nc2nc(N)nc(CN3CCN(C(=O)c4ccco4)CC3)n2)cc1Cl`, the AC50 is 12.6 µM [rising, single point].
Take `CC1(C)Cc2c(C#N)c(SCC(=O)c3ccccc3)nc(N3CCOCC3)c2CO1`: the AC50 is 0.00398 µM [falling, full curve, poor fit].
Regarding `Cc1cc(NC(=O)c2cc(S(=O)(=O)N3CCCCC3)ccc2C)n(-c2ccccn2)n1`, the AC50 is 2.51 µM [rising, single point].
Take `Cn1c(=O)[nH]c(=O)c2c1nc(CN1CCN(c3ccc(F)cc3)CC1)n2CCCc1ccccc1`: the AC50 was 3.98 µM [rising, partial curve].
For `COc1ccc(C(c2sc3nc(C)nn3c2O)N2CCc3ccccc3C2)cc1` (stereo not drawn), the AC50 was 7.94 µM [rising, partial curve].
Regarding `Cc1ccnc2nc(C(=O)OCCOc3ccccc3)nn12`, the AC50 was 25.1 µM [rising, single point].
The same measure for `Cc1ccc2cc3cc(C(=O)NCCCN4CCCCCC4)oc3nc2c1`: 0.1 µM [rising, full curve]; for `CSc1nc(-c2ccccc2)nc(SC)c1C(C)=O`: 12.6 µM [rising, partial curve].
In the case of `CCCCCCCC(=O)O[C@H](CC(=O)O)C[N+](C)(C)C`, the AC50 is 31.6 µM [falling, single point].
The same measure for `Cc1ccc2nc(NC(=O)CNS(=O)(=O)c3ccc(Br)s3)sc2c1`: 0.158 µM [falling, full curve].
As for `CCCn1c(-c2ccc(F)cc2)n[nH]c1=S`, the AC50 was 10 µM [rising, partial curve, poor fit].
With `CCOC(=O)C1CCN(C(=O)CCCOc2ccccc2)CC1` the figure was 0.316 µM [rising, partial curve, poor fit].
For `COC1Cc2ccccc2N(C(=O)N2CCN(CCO)CC2)c2ccccc21` (stereo not drawn), the AC50 is 3.98 µM [falling, full curve, poor fit].
With `Cc1cc(=O)oc2c(N)c(O)ccc12`, the AC50 was 20 µM [falling, single point].
As for `CCOC(=O)Cn1c(=O)n(CC(=O)OCC)c2ccccc21`, the AC50 is 0.02 µM [falling, full curve, poor fit].
In the case of `CC1=C(C(=O)OC2CCCCC2)C(c2ccco2)n2ncnc2N1` (stereo not drawn), the AC50 is 6.31 µM [rising, partial curve].
`COC(=O)[C@@]1(Cc2ccccc2)[C@H]2c3cc(C(=O)N(C)C)n(Cc4ccc(S(C)(=O)=O)cc4)c3C[C@H]2CN1C(=O)c1ccccc1`: the AC50 was 0.126 µM [rising, full curve, poor fit].
Turning to `COc1cc(/C=C\C(=O)CC(=O)/C=C\c2ccc(O)c(OC)c2)ccc1O`, the AC50 was 25.1 µM [rising, partial curve].
With `O=C(NCC(=O)N1CCC(N2CCCCC2)CC1)C1CCCCC1` the figure was 12.6 µM [rising, single point].
As to `O=C(CCCOc1ccccc1)N1CCCc2ccccc21`, the AC50 was 0.00316 µM [falling, partial curve, poor fit].
Turning to `CC12CCC(c3c(C(=O)Nc4nccs4)nn(-c4ccccc4)c31)C2(C)C` (stereo not drawn), the AC50 is 12.6 µM [rising, partial curve].
With `Cc1nnc2sc(-c3csc4c3CCCC4)nn12`, the AC50 was 10 µM [rising, partial curve].
Regarding `Cc1cccn2c(=O)c(C=Nc3ccc(Cl)cc3)c(NCCO)nc12`, the AC50 was 0.1 µM [rising, partial curve].
As to `Cc1ccccc1OCCCC(=O)Nc1ccc(N2CCOCC2)cc1`, the AC50 is 0.0631 µM [rising, full curve, poor fit].
The same measure for `COc1ccc(CNc2nc(-c3c(C)noc3C)nc3ccccc23)c(OC)c1`: 10 µM [rising, partial curve]; for `O=C1CSc2ccccc2N1Cc1ccccc1F`: 25.1 µM [rising, single point]; for `Cc1cc(C)c2nc(N3CCCC3)c(C#N)cc2c1`: 12.6 µM [rising, partial curve].
For the compound `Cc1cccc(-c2noc(-c3ccccc3C(=O)NCC3CCCO3)n2)c1` (stereo not drawn), the AC50 is 2.51 µM [falling, single point].
The same measure for `Cc1c(-c2ccccc2)nc2ccccc2c1C(=O)O`: 0.631 µM [rising, full curve].
Consider `CCCn1c(C)nc2c(NC3CCN(Cc4ccccc4)C3)nc(C)nc21` (stereo not drawn), for which the AC50 was 12.6 µM [rising, partial curve, poor fit].
With `CC(/C=C/C=C(C)/C=C/C(=O)O)=C\C=C\C=C(C)\C=C\C=C(C)\C=C\C(=O)O`, the AC50 was 1.26 µM [falling, full curve, poor fit].
For `CCNc1ncc2nc(-c3cn(C)c4ccccc34)c(=O)n(C)c2n1`, the AC50 is 10 µM [rising, partial curve].
In the case of `CCCn1c(=NC(C)=O)c(C#N)cc2c(=O)n3cccc(C)c3nc21`, the AC50 is 2 µM [rising, full curve].
`O=C(CC(=O)c1ccccc1)Nc1ccc2c(c1)OCCO2`: the AC50 was 12.6 µM [falling, partial curve, poor fit].
Regarding `N=c1c(C(=O)NCc2ccc(F)cc2)cc2c(=O)n3ccccc3nc2n1Cc1ccco1`, the AC50 was 6.31 µM [rising, partial curve].
As for `CC(C)(C)c1ccc(-c2nnc3sc(-c4ccccn4)nn23)cc1`, the AC50 was 7.94 µM [rising, partial curve].
The same measure for `COc1ccc(Cn2c(C)ccc2C)cc1`: 0.316 µM [rising, full curve].
As to `CCOc1ccccc1C1C(C#N)=C(N)SC(N)=C1C#N`, the AC50 is 5.01 µM [falling, single point].
In the case of `CCOC(=O)c1ccc(N2C(=O)CC(N3CCN(C(=O)c4ccco4)CC3)C2=O)cc1` (stereo not drawn), the half-maximal activity concentration (AC50) is 0.158 µM [falling, full curve].
With `CC1CN(C(=O)CN2C(=O)NC(C)(c3ccccc3)C2=O)CC(C)O1` (stereo not drawn) the figure was 0.2 µM [falling, partial curve]; with `CCCCCCn1cnc2c(c1=O)c1nc3ccccc3nc1n2/N=C/c1ccco1`, 1.58 µM [rising, full curve].
Turning to `CC(C)c1cc(=O)oc2c3c4c(cc12)CCCN4CCC3`, the AC50 is 12.6 µM [rising, partial curve].
`CCOc1ccc(CCNC(=O)C2CCN(c3ccc(N4CCOCC4)nn3)CC2)cc1OCC`: the AC50 is 25.1 µM [rising, partial curve, poor fit].
Take `Cc1ccc2[nH]c(C(=O)O)c(-c3ccccc3)c2c1`: the AC50 was 5.01 µM [falling, single point].
With `COc1ccccc1OCC(=O)NCC1CCCCC1`, the AC50 is 0.0316 µM [falling, full curve, poor fit].
On to `Cn1c(C(=O)NCCN2CCOCC2)cc2c(=O)n(C)c3ccccc3c21`, for which the AC50 is 12.6 µM [rising, partial curve].
Consider `CCc1ccc2oc(=O)cc(CN(C)Cc3ccccc3)c2c1`, for which the AC50 is 2 µM [rising, partial curve].
On to `N#CC1=C(SCc2ccccc2)NC(=O)CC1c1ccc(O)cc1` (stereo not drawn), for which the AC50 was 0.00316 µM [falling, full curve, poor fit].
With `CCOc1ccc(-n2c(Cc3cc(=O)[nH]c(=O)[nH]3)nnc2SCC(N)=O)cc1` the figure was 25.1 µM [rising, single point]; with `Cc1cccc(CNc2cc(-c3ccccc3C)ncn2)c1`, 25.1 µM [rising, single point]; with `O=C(Nc1ccccc1Cl)c1cc(S(=O)(=O)N2CCCC(C(=O)O)C2)ccc1F` (stereo not drawn), 2 µM [rising, partial curve].
Take `C=CCn1c(SCC(=O)Nc2cc(C)ccc2OC)nnc1-c1ccco1`: the concentration at half-maximal activity (AC50) was 10 µM [rising, single point].
For `COc1ccc(CNc2nc(-c3cccnc3)nn2C(=O)c2cccs2)cc1`, the half-maximal activity concentration (AC50) was 3.98 µM [rising, full curve].
For the compound `COc1ccc(N(CC(=O)N2c3ccccc3CC2C)S(=O)(=O)c2c(C)noc2C)cc1` (stereo not drawn), the AC50 was 10 µM [rising, partial curve, poor fit].
Consider `CCCC(=O)Nc1ccc2c(c1)nc1n2CCSC1`, for which the AC50 was 15.8 µM [rising, single point].
With `Cc1ccc(C(=O)CC2(O)C(=O)N(Cc3ccccc3Cl)c3ccccc32)o1` (stereo not drawn), the AC50 was 12.6 µM [falling, partial curve, poor fit].
For the compound `COc1ncc2nc(-c3cccs3)c(=O)n(CCC#N)c2n1`, the AC50 was 12.6 µM [rising, partial curve].
